This assay deals with His-tagged PanZ (E. coli) (UniProt P37613). The assay is described as follows: SEC; Hi-Load 26/60 Superdex 75; 50 mM Tris-HCl, 100 mM NaCl, 0.1 mM DTT, pH 7.4; elution volumes of each protein alone; both purified. (In general: Size exclusion chromatography separates by hydrodynamic size, large species first.)

Results are given in words; binding and its absence hold for the method and conditions named. Where a sequence is shown, tags or fusion partners need not be part of it.

B1: His-tagged PanZ (protein, UniProt P37613 1-127)
chain: MKLTIIRLEKFSDQDRIDLQKIWPEYSPSSLQVDDNHRIYAARFNERLLAAVRVTLSGTEGALDSLRVREVTRRRGVGQYLLEEVLRNNPGVSCWWMADAGVEDRGVMTAFMQALGFTAQQGGWEKC
As for B1, the binding entry is “no binding”.
